Reference: PubChem BioAssay AID652259 (Drosophila RNAi Screening Center, 2013)
Screen: 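Genome-wide hunt for genes that control Wingless pathway activity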 (primary screen). Cells: Drosophila clone 8 imaginal disc epithelial cells. Knock-down reagent: long dsRNA against Drosophila genes. Treatment: pathway stimulated by co-transfected Wingless expression plasmid. Measurement: 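Dual luciferase reads per well after Wingless plasmid stimulation: reporter firefly light and Renilla control light; activity is firefly divided by Renilla, a ratio not deposited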. Reading the numbers: firefly reporter light: higher = more Wg reporter light, before normalisation; Renilla control light: higher = more transfected or surviving cells. Rule for the call: 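a knock-down is a candidate when at least two out of four statistical tests show it departing from its plate mean; one test alone signals a weak candidate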. Meaning of the calls: active = candidate regulator (raises or lowers reporter); inactive = not a candidate.
In all, the deposit lists about 22,000 reagents; shown is a random part of those that have a named target and a result. Of all reagents, 233 (1.1%) are marked active. 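Light values are raw, unnormalised plate reads; the ratio scores behind the reporter calls were not deposited.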 Not given: the amount of reagent, the time to read-out, the dose of the treatment.

Target gene | dsRNA | reporter change call, replicate 1 | firefly reporter light, replicate 1 | firefly reporter light, replicate 2 | Renilla control light, replicate 1 | Renilla control light, replicate 2 | activity call
Sec6 | DRSC06932 | – | 15458 | – | 3872 | – | inactive
trx | DRSC17089 | – | 6821 | – | 1225 | – | inactive
Acn | DRSC02062 | – | 8758 | – | 1067 | – | inactive
RagA-B | DRSC14450 | – | 5047 | – | 2487 | – | inactive
CG13040 | DRSC09921 | – | 11531 | – | 4549 | – | inactive
TrxT | DRSC22182 | – | 7.84e5 | 6.98e5 | 3.87e5 | 3.63e5 | inactive
udt | DRSC14214 | – | 14600 | – | 12514 | – | inactive
CG32271 | DRSC08198 | – | 8680 | – | 2804 | – | inactive
eIF4A | DRSC03526 | – | 2187 | 5324 | 340 | 999 | inactive
dy | DRSC20325 | – | 30572 | – | 16924 | – | inactive
Gr66a | DRSC10783 | – | 1368 | 5836 | 1036 | 3223 | inactive
CG17819 | DRSC15279 | – | 40273 | – | 8070 | – | inactive
CG11927 | DRSC00337 | – | 8640 | – | 3654 | – | inactive
lds | DRSC16988 | – | 14872 | – | 3851 | – | inactive
Dora | DRSC19614 | – | 37808 | – | 6512 | – | inactive
Dora | DRSC19781 | – | 26769 | – | 1056 | – | inactive
Dora | DRSC20034 | – | 19139 | – | 10154 | – | inactive
Dora | DRSC20035 | – | 19799 | – | 5498 | – | inactive
l(3)L1231 | DRSC16323 | – | 4896 | – | 2672 | – | inactive
SMC3 | DRSC20227 | – | 20994 | – | 6507 | – | inactive
Ipp | DRSC16718 | – | 16505 | – | 1777 | – | inactive
Pkn | DRSC06809 | – | 10211 | – | 1034 | – | inactive
Pkn | DRSC06810 | – | 3174 | 8860 | 1078 | 1809 | inactive
Hr4 | DRSC18495 | Wg reporter activity raised | 30708 | – | 19520 | – | active
Hr4 | DRSC18599 | – | 14167 | – | 8292 | – | inactive
Hr4 | DRSC22269 | Wg reporter activity raised | 7.90e5 | 7.48e5 | 61730 | 60448 | inactive
Hr4 | DRSC22677 | – | 1.32e6 | 1.24e6 | 1.63e5 | 44147 | inactive
CG1631 | DRSC20535 | – | 15731 | – | 8777 | – | inactive
CG6788 | DRSC20007 | – | 22032 | – | 9154 | – | inactive
Nrk | DRSC07480 | – | 4658 | – | 2229 | – | inactive
Actn | DRSC17724 | – | 2194 | 7034 | 784 | 1805 | inactive
CaMKI | DRSC17162 | – | 2178 | 7990 | 919 | 2976 | inactive
Drice | DRSC16715 | – | 4506 | 10352 | 1520 | 3127 | inactive
CG12723 | DRSC19499 | – | 23315 | 7.34e5 | 11513 | 3.22e5 | inactive
CG33301 | DRSC02778 | – | 3011 | 4388 | 1189 | 2912 | inactive
eEFSec | DRSC04571 | – | 1652 | 5185 | 601 | 1698 | inactive
Sgt1 | DRSC16519 | – | 22551 | – | 4352 | – | inactive
CG8997 | DRSC01900 | – | 1698 | 4375 | 904 | 2411 | inactive
eIF4E6 | DRSC14853 | – | 4374 | – | 2105 | – | inactive
Bcs1 | DRSC02789 | – | 2720 | 7888 | 707 | 3192 | inactive
Acp29AB | DRSC01857 | – | 2026 | 8972 | 722 | 3299 | inactive
CG32814 | DRSC17670 | – | 5274 | – | 1469 | – | inactive
CG18675 | DRSC08536 | – | 2805 | – | 1781 | – | inactive

Single entries from the list.
Value for Sgt1 [DRSC16519] under “Renilla control light, replicate 1”: 4352
Value for CaMKI [DRSC17162] in “Renilla control light, replicate 2”: 2976
Entry for CG6788 [DRSC20007] in “activity call”: inactive
CG8997 [DRSC01900], activity call → inactive

The listing continues:
Target gene | dsRNA | reporter change call, replicate 1 | firefly reporter light, replicate 1 | firefly reporter light, replicate 2 | Renilla control light, replicate 1 | Renilla control light, replicate 2 | activity call
pyd | DRSC12712 | – | 4736 | – | 2208 | – | inactive
pyd | DRSC14387 | – | 6146 | – | 2311 | – | inactive
pyd | DRSC14445 | – | 14077 | – | 3028 | – | inactive
pyd | DRSC14509 | – | 19715 | – | 5308 | – | inactive
pyd | DRSC16547 | – | 7492 | – | 2330 | – | inactive
pyd | DRSC16548 | – | 25139 | – | 3789 | – | inactive
pyd | DRSC17041 | – | 17383 | – | 5261 | – | inactive
pyd | DRSC21523 | – | 5.80e5 | 5.84e5 | 3.20e5 | 2.45e5 | inactive
14-3-3epsilon | DRSC16370 | – | 9488 | – | 1712 | – | inactive
aay | DRSC11320 | – | 4995 | – | 2570 | – | inactive
CG12093 | DRSC08252 | – | 20097 | – | 6679 | – | inactive
CG4630 | DRSC06874 | – | 18037 | – | 6452 | – | inactive
Rab8 | DRSC11261 | – | 8709 | – | 3880 | – | inactive
flr | DRSC09787 | – | 5722 | – | 2345 | – | inactive
CG4301 | DRSC19886 | – | 12052 | – | 5771 | – | inactive
Hip14 | DRSC10570 | – | 6977 | – | 2618 | – | inactive
OXA1L | DRSC09672 | – | 3377 | – | 1638 | – | inactive
CG14545 | DRSC14889 | – | 17016 | – | 15986 | – | inactive
CG8202 | DRSC16396 | – | 17873 | – | 5794 | – | inactive
Zwilch | DRSC15376 | – | 7635 | – | 2979 | – | inactive
l(1)G0320 | DRSC18255 | – | 1868 | 5929 | 569 | 1968 | inactive
CG31244 | DRSC21589 | – | 5.32e5 | 5.15e5 | 2.52e5 | 1.73e5 | inactive
CG9806 | DRSC18444 | – | 15771 | – | 8672 | – | inactive
jef | DRSC06198 | – | 8920 | – | 3905 | – | inactive
CG12118 | DRSC17813 | – | 2381 | 7200 | 933 | 1808 | inactive
CG17724 | DRSC06687 | – | 7234 | – | 2706 | – | inactive
IntS6 | DRSC18281 | – | 2016 | 5121 | 711 | 1751 | inactive
mirr | DRSC11369 | – | 5362 | – | 1808 | – | inactive
Rcc1 | DRSC09684 | – | 8688 | – | 3050 | – | inactive
Tsp5D | DRSC18380 | – | 23624 | – | 11720 | – | inactive
FBXO11 | DRSC16497 | – | 7437 | – | 2796 | – | inactive
CG3085 | DRSC04335 | – | 9760 | – | 2866 | – | inactive
gsb | DRSC04692 | – | 3072 | 6453 | 685 | 2439 | inactive
Pldn | DRSC10137 | – | 9315 | – | 3872 | – | inactive
14-3-3zeta | DRSC05028 | – | 10548 | – | 3184 | – | inactive
CG42337 | DRSC11686 | – | 20434 | – | 4566 | – | inactive
CG42337 | DRSC11687 | Wg reporter activity raised | 12605 | – | 1349 | – | active
ND4 (retired record) | DRSC21269 | – | 25099 | – | 1802 | – | inactive
CG4151 | DRSC18351 | – | 20214 | – | 8265 | – | inactive
Acf | DRSC14101 | – | 1255 | 2656 | 567 | 997 | inactive
Vps45 | DRSC16398 | – | 8288 | – | 2829 | – | inactive
CG42594 | DRSC18053 | – | 9600 | – | 1494 | – | inactive
CG42594 | DRSC18408 | – | 18784 | – | 8769 | – | inactive
CG2061 | DRSC19348 | – | 2892 | 6912 | 1196 | 2261 | inactive
CG8152 | DRSC07083 | – | 5509 | – | 2315 | – | inactive
CG13078 | DRSC02182 | – | 2902 | 4870 | 672 | 1787 | inactive
CG8543 | DRSC10990 | – | 2476 | 10425 | 2083 | 4789 | inactive
CG8543 | DRSC22809 | – | 3.65e5 | 4.24e5 | 1.90e5 | 2.73e5 | inactive
Obp83b | DRSC12360 | – | 12416 | – | 3672 | – | inactive
CG11470 | DRSC14313 | – | 7126 | – | 2900 | – | inactive
